Patent publication US20210024645A1 (HANGZHOU SUMGEN BIOTECH, published 2021)
No constants are given. Whether binding was seen depends on the method and setting. Some results given as binding are weak or reduced against the parent protein; the word gives no strength.

Protein sequences, listed by entry. Tags and fused reporters are not part of them. Residues count along the entry.
UniProt P28907, residues 43-300: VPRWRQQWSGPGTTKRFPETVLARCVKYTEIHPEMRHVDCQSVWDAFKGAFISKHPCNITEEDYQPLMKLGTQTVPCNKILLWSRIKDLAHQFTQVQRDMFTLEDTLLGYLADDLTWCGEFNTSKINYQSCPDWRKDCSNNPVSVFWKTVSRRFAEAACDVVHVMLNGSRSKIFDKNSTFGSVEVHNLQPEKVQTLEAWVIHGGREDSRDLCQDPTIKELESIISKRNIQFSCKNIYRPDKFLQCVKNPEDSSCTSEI

Assays:
[1] = biological target: CD38 antigen (UniProt P28907); assay: method not clearly stated (refers to Example 4; FIG. 9)
[2] = biological target: CD38 antigen (UniProt P28907); assay: binding curve with axis Absorbance (OD450nm), CD38 antigen

Row | binding [1] | binding [2] | Binder
1 | binds | binds | SG003M2 (antibody, human IgG1, kappa, V domains shown) VH: QVQLLESGGGLVQPGGSLKLSCVASGFDFSLYWMNWVRQAPGKGLEWIGKISPNSSTINYSPSLKDKFFISRDNAKNTLYLQMTKVRSEDTALYYCARLYIASGGFDYWGQGTTLTVSS VL: EIVMTQSPASLSASLGQRATISCRASSSVSSSAYSYVHWYQQKSGQPPKLLIYLASDLQSGVPARFSGSGSGTDFTLTIHPVESEDVATYYCHHSRELPYSFGSGTKLEIKR
2 | binds | binds | SG003M3 (antibody, human IgG1, kappa, V domains shown) VH: QVQLLESGGGLVQPGGSLKLSCVASGFDFSLYWMNWVRQAPGKGLEWIGKISPDSSSLNYTPSVKDKFFISRDNAKNTLYLQMTKVRSEDTALYYCARLWIATGGYNYWGQGTTLTVSS VL: EIVMTQSPASLSASLGQRATISCRASNSVSTSAFSYVHWYQQKSGQPPKLLIYLASNLESGVPARFSGSGSGTDFTLTIHPVESEDVATYYCHHSREVPFTFGSGTKLEIKR
